Results deposited as PubChem BioAssay AID1508587 (Peter MacCallum Cancer Centre, 2020).

- Purpose: 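Follow-up of vemurafenib sensitisers scored by lactate made per cell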 (follow-up of hits)
- Cells: human WM266.4 melanoma cells with a BRAF V600 mutation
- Reagents: single siRNA against human genes, 25 nM
- Duration: 96 h
- Challenge: vemurafenib 300 nM (about IC25), given 48 h after transfection for 48 h
- Detection: 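Per-cell lactate from absorbance divided by DAPI nucleus counts, compared with and without vemurafenib, relative to non-targeting siRNA, mean of 2 replicates; nuclear counts also give cell number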
- Direction: lactate per cell, drug vs no drug: higher = less drug-induced drop in lactate per cell; lactate per cell with vemurafenib: higher = more lactate per cell under drug
- Call rule: 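a duplex is active when its lactate-per-cell ratio with versus without drug falls under 0.55, i.e. 2 SD below non-targeting; a gene is confirmed if 2 or more of 4 duplexes pass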
In all, the deposit lists about 1,600 reagents; this is a part drawn at random. 623 of them (39%) count as active. 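Calls are for each duplex; lactate ratios contain extreme outliers.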 The numbers tell different reagents against one gene apart. Further read-outs or replicates are left out here.

target	reagent	lactate per cell, drug vs no drug	lactate per cell with vemurafenib	outcome
GCK (glucokinase)	1	0.07	0.1	active
GCK (glucokinase)	2	0.61	1.53	inactive
GCK (glucokinase)	3	0.51	0.98	active
GCK (glucokinase)	4	0.83	1.61	inactive
TNFRSF10D (TNF receptor superfamily member 10d)	1	1.13	2.94	inactive
TNFRSF10D (TNF receptor superfamily member 10d)	2	0.5	1.04	active
TNFRSF10D (TNF receptor superfamily member 10d)	3	0.61	0.9	inactive
TNFRSF10D (TNF receptor superfamily member 10d)	4	0.67	0.78	inactive
SMG6 (SMG6 nonsense mediated mRNA decay factor)	1	0.62	2.12	inactive
SMG6 (SMG6 nonsense mediated mRNA decay factor)	2	0.54	1.21	active
SMG6 (SMG6 nonsense mediated mRNA decay factor)	3	0.6	0.77	inactive
SMG6 (SMG6 nonsense mediated mRNA decay factor)	4	0.71	3.43	inactive
TPM2 (tropomyosin 2)	1	0.55	2.12	inactive
TPM2 (tropomyosin 2)	2	0.62	1.08	inactive
TPM2 (tropomyosin 2)	3	0.62	1.12	inactive
TPM2 (tropomyosin 2)	4	0.64	1.19	inactive
TCN2 (transcobalamin 2)	1	0.51	1.52	active
TCN2 (transcobalamin 2)	2	0.53	0.79	active
TCN2 (transcobalamin 2)	3	0.25	0.35	active
TCN2 (transcobalamin 2)	4	0.51	1.47	active

Records listed so far called active:
target	reagent	lactate per cell, drug vs no drug	lactate per cell with vemurafenib	outcome
GCK (glucokinase)	1	0.07	0.1	active
GCK (glucokinase)	3	0.51	0.98	active
TNFRSF10D (TNF receptor superfamily member 10d)	2	0.5	1.04	active
SMG6 (SMG6 nonsense mediated mRNA decay factor)	2	0.54	1.21	active
TCN2 (transcobalamin 2)	1	0.51	1.52	active
TCN2 (transcobalamin 2)	2	0.53	0.79	active
TCN2 (transcobalamin 2)	3	0.25	0.35	active
TCN2 (transcobalamin 2)	4	0.51	1.47	active
